Results reported in paper PMC5852951.
No constants are given. Whether binding was seen depends on the method and setting. Binding seen in cells or lysates may run through a third protein. Some results given as binding are weak or reduced against the parent protein; the word gives no strength.

The chains behind the UniProt entries cited, without tags or fusion partners.
UniProt P68400: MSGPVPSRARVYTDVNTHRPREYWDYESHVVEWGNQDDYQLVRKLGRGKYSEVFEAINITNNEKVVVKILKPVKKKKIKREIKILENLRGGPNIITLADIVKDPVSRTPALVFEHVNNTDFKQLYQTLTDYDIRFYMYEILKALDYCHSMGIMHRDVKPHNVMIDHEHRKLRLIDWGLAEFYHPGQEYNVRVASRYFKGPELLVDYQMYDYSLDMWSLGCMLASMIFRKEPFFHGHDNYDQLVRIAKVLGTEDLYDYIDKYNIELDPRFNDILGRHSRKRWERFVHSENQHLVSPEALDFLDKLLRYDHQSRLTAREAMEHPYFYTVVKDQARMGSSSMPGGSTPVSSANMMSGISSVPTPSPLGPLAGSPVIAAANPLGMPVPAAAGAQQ
UniProt P28698: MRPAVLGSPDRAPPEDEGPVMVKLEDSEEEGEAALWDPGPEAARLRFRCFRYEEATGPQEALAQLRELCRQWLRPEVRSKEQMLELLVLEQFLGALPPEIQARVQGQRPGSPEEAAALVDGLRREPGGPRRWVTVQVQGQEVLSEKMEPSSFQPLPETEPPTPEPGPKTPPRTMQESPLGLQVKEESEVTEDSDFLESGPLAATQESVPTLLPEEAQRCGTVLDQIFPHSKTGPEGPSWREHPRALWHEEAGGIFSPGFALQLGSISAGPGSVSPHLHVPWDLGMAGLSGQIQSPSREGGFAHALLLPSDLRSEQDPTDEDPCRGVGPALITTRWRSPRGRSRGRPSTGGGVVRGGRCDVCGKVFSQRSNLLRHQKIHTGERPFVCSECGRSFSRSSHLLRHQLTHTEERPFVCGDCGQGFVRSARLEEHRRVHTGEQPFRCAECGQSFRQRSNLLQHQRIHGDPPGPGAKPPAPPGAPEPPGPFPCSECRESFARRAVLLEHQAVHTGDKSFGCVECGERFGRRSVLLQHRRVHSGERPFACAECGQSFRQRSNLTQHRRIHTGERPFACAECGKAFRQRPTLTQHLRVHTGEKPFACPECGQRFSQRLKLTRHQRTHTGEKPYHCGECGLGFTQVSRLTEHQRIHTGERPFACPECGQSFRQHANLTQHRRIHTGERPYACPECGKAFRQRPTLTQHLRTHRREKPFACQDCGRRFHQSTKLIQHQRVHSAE

Legend:
[1] = target: GST-tagged CK2α (human recombinant CK2) (human) (UniProt P68400); assay: pull-down; 3 ug GST-CK2α immobilised on Glutathione-Sepharose 4B, incubated overnight at 4 °C with lysates of HEK293 cells transfected with HA-MZF1; washed with PBS; western blot with anti-HA Ab; only the target purified
Flag-MZF1 = Flag-MZF1 (UniProt P28698); assay: co-IP; HEK293 cells transfected with Flag-MZF1; lysis in 50 mM Tris-HCl pH 7.4, 150 mM NaCl, 0.5% NP-40; immunoprecipitation with anti-Flag Ab, western blot with anti-CK2α Ab

binding [1] | binding (Flag-MZF1) | Substance
binds | – | HA-tagged MZF1 (myeloid zinc finger 1) (from UniProt P28698 1-734)
– | binds | endogenous CK2α (from UniProt P68400 1-391) (enzyme)
